Test results published in PubChem BioAssay (NCATS).
Values joined by “and” are separate entries in the source; they are usually repeats but may differ in a detail not shown here. Equal values may be shown once. This is one part of the list. These are further read-outs of the screen, such as a control signal, another cell line or another target. No call is given for them. For part of these data: The list favours compounds with an active or inconclusive main result. For part of these data: Potencies come from curve fits of mixed quality, noted in brackets.

Tests used:
[1] = qHTS assay for small molecule agonists of retinoid X receptor alpha signaling (AID 588544); conditions: HEK293T RXRa-UAS-bla, beta-lactamase reporter, 18 h; 530 nm emission
[2] = A High-Content qHTS Against Drug Library for the Identification of Small Molecules that Inhibit DYT1 Early Onset Primary Dystonia-Associated Cell Pathology (AID 1645839); conditions: HEK293 Flp-In EGFP-delE TorsinA, punctate imaging, 48 h; measured here: cell count cytotoxicity
Method in brief: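 Flp-In T-REx 293 cells with tetracycline-inducible EGFP-delE hTOR1A (WT EGFP-hTOR1A as reference), 800 cells/well; compound added with tetracycline, 48 h at 37 C. Fixed, permeabilized cells imaged; %pathology (punctate TorsinA) primary, cell count counterscreen.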

[3] = qHTS drug screen for cell cycle checkpoint inhibitors in PARPi-resistant BRCA-mutant ovarian cancer cell lines. (AID 1963452); conditions: PEO1/OlaR viability, CellTiter-Glo luminescence, 96 h
Method in brief: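 PEO1, PEO4 and PEO1/OlaR ovarian cancer cells, 600 per well, exposed 96 h at 37C to a dilution series. Viability read by CellTiter-Glo luminescence, normalized to DMSO and empty wells; activity summarized as Z-AUC.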

[4] = qHTS for identification of novel therapeutic agents for treatment of microphthalmiaassociated transcription factor (MiT) renal cell carcinoma (RCC) (AID 1963991); conditions: CellTiter-Glo, 48 h; for z-score: stronger effect = lower value
Method in brief: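 Three TFE3-fusion RCC lines (UOK109, UOK124, UOK145), 500 cells/well in complete medium, were treated with MIPE 4.0 compounds for 48 hours at 37 C. Viability was by CellTiter-Glo luminescence, normalized to DMSO (100%) and empty wells (0%); curves fitted over 11 concentrations.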

[5] = qHTS Assay for Modulators of Human Peripheral Myelin Protein 22 (PMP22) Expression/Activity (AID 1967); conditions: Cell-based PMP22 reporter, dual-color luciferase ratio
Method in brief: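 Readout is the corrected green/red luminescence ratio after 24 h compound exposure, normalised to untreated cells (0%). Engineered MSC80 mouse Schwann cells express green luciferase from the mouse Pmp22 promoter and red luciferase from EF-alpha as internal control.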

[6] = qHTS assay for small molecule antagonists of peroxisome proliferator-activated receptor gamma signaling (AID 588537); conditions: HEK293 PPARg-UAS-bla, beta-lactamase ratio, antagonist mode; measured here: W460 blue channel
Method in brief: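 PPARγ-UAS-bla HEK293 cells (3000/well) in 1% charcoal/dextran-stripped FBS are treated with compound, then stimulated with 50 nM rosiglitazone for 16 h at 37 °C. Read-out is CCF4 β-lactamase fluorescence after 2 h at RT. IC50 comes from Hill fits normalised to rosiglitazone and DMSO.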

[7] = S16 Schwann cell PMP22 intronic element beta-lactamase assay (AID 624044); conditions: S16 rat Schwann cells, PMP22 element beta-lactamase FRET, 24 h
Method in brief: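 Rat S16 Schwann cells with beta-Lac driven by a PMP22 intronic element, compound-treated 24 h at 37 °C. LiveBLAzer FRET B/G read: 460 nm normalized to potassium clavulanate vs DMSO; 535 nm FRET as viability; concentration-effect curves classified.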

[8] = qHTS Validation Assay to Find Inhibitors of Chronic Active B-Cell Receptor Signaling (AID 485345); conditions: ABC-DLBCL cells, chronic BCR signaling reporter; measured here: CBR control luciferase (viability counter)
Method in brief: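 TMD8 ABC-DLBCL cells stably carrying doxycycline-inducible IkappaBalpha–green luciferase fusion plus unfused red luciferase; compounds 46 uM to 3 nM, 4 h at 37C with doxycycline. Corrected green/red luminescence ratio normalized to 10 uM MG-132 and basal cell wells; curves fitted.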

[9] = qHTS assay for small molecule antagonists of retinoid X receptor alpha signaling (AID 588546); conditions: HEK293T RXRa-UAS-bla, beta-lactamase ratio, antagonist mode; measured here: W530 green channel, cytotoxicity proxy;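 also: cells stimulated with 9-cis-retinoic acid as agonist; % is scaled to controls: 0 for no effect and ±100 for the full control effect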
Method in brief: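 Beta-lactamase reporter inhibition, read as CCF4 fluorescence ratio (ex 405, em 460/530 nm) after 2 h at RT. HEK293T UAS-bla cells, 2500/well, were stimulated with 9-cis-RA at 500 or 100 nM final alongside test compound for 18 h at 37 C.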

[10] = measured here: PEO1 parental viability
[11] = TFE3-RCC UOK109 viability, measured here: UOK109 Z-AUC
[12] = TFE3-RCC viability, measured here: UOK124 Z-AUC
[13] = TFE3-RCC viability, measured here: UOK124 cell viability
[14] = TFE3-RCC viability, measured here: UOK145 Z-AUC
[15] = TFE3-RCC viability, measured here: UOK145 cell viability
[16] = measured here: 460 nm blue channel
[17] = measured here: 530 nm viability channel

CC/C(=C(/CC)c1ccc(O)cc1)c1ccc(O)cc1
max response [1]: 26.8%
AC50 [2]: 1 µM [falling, full curve, poor fit]
AC50 [3, 10]: 21.9 µM [falling, single point]
AC50 ([3]; measured here: PEO4 viability): 24.5 µM [falling, single point]

O=C(NOCC1CC1)c1ccc(F)c(F)c1Nc1ccc(I)cc1Cl
AC50 [2]: 12.6 µM [falling, single point]
AC50 [3, 10]: 5.49 µM [falling, single point]
z-score [4, 11]: -1.29
z-score [4, 12]: -0.235
AC50 [4, 13]: 18.7 µM [falling, partial curve]
z-score [4, 14]: -0.299
AC50 [4, 15]: 20.9 µM [falling, partial curve]

CC(C)NCC(O)c1ccc(O)c(O)c1 (stereo not drawn)
AC50 ([5]; measured here: green reporter channel AC50, mouse Pmp22 promoter in mouse Schwann cells): 84.9 µM [falling, single point] and 95.3 µM [falling, single point]
AC50 ([5]; measured here: red reporter channel AC50, EF-alpha promoter control reporter in MSC80 mouse Schwann cells): 75.7 µM [falling, partial curve] and 84.9 µM [falling, single point]
AC50 [6]: 50.1 µM [rising, single point]
AC50 [2]: 35.5 µM [falling, single point]
z-score [4, 11]: -0.664
z-score [4, 12]: 0.496
AC50 [4, 13]: 3.72 µM [falling, partial curve, poor fit]
z-score [4, 14]: -1.6
AC50 [4, 15]: 1.32 µM [falling, full curve]

CN1CCC(=C2c3ccccc3CCc3sccc32)CC1
AC50 [2]: 7.08 µM [falling, full curve]
AC50 ([3]; measured here: PEO4 viability): 27.5 µM [falling, single point]
z-score [4, 11]: 0.48
z-score [4, 12]: -0.0304
AC50 [4, 13]: 20.9 µM [falling, partial curve]
z-score [4, 14]: 1.35
AC50 [4, 15]: 33.2 µM [falling, partial curve, poor fit]

CC(S)C(=O)NCC(=O)O (stereo not drawn)
AC50 [2]: 10 µM [rising, partial curve]
z-score [4, 11]: 0.689
z-score [4, 12]: 0.124
z-score [4, 14]: 1.19
AC50 [4, 15]: 37.2 µM [falling, single point]

O=C(CCCCCCC(=O)Nc1ccccc1)NO
AC50 [7, 16]: 2.51 µM [falling, full curve]
AC50 [7, 17]: 25.1 µM [rising, partial curve]
AC50 [2]: 3.98 µM [falling, full curve, poor fit]
AC50 [3, 10]: 3.89 µM [falling, full curve]
AC50 ([3]; measured here: PEO4 viability): 8.71 µM [falling, partial curve]
z-score [4, 11]: -0.83
z-score [4, 12]: -0.438
AC50 [4, 13]: 16.6 µM [falling, partial curve]
z-score [4, 14]: -0.508
AC50 [4, 15]: 13.2 µM [falling, partial curve]

Clc1ccc(Nc2nnc(Cc3ccncc3)c3ccccc23)cc1
AC50 [2]: 8.91 µM [falling, partial curve, poor fit]
z-score [4, 11]: 0.298
z-score [4, 12]: 0.125
z-score [4, 14]: -1.07
AC50 [4, 15]: 20.9 µM [falling, single point]

Cc1cc(=O)c2c(O)c3c(O)cc(=O)c4c3c3c(cc(O)c1c23)C(C)(C)C=4O
AC50 [7, 16]: 14.1 µM [falling, single point]
AC50 [7, 17]: 11.2 µM [falling, single point]
AC50 [2]: 1.12 µM [falling, full curve, poor fit]
z-score [4, 11]: -0.288
z-score [4, 12]: -0.182
AC50 [4, 13]: 1.18 µM [falling, full curve]
z-score [4, 14]: 0.549
AC50 [4, 15]: 20.9 µM [falling, partial curve]

O[C@@H](CNC[C@H](O)[C@H]1CCc2cc(F)ccc2O1)[C@@H]1CCc2cc(F)ccc2O1
AC50 [2]: 3.55 µM [falling, full curve, poor fit]
z-score [4, 11]: -0.0304
z-score [4, 12]: -0.165
AC50 [4, 13]: 20.9 µM [falling, partial curve]
z-score [4, 14]: 1.1
AC50 [4, 15]: 37.2 µM [falling, single point]

CCOC(=O)[C@H](CCc1ccccc1)N[C@H]1CCc2ccccc2N(CC(=O)O)C1=O
AC50 [2]: 2.24 µM [falling, full curve, poor fit]
z-score [4, 11]: 0.103
z-score [4, 12]: -0.0662
AC50 [4, 13]: 20.9 µM [falling, partial curve]
z-score [4, 14]: 0.234
AC50 [4, 15]: 26.4 µM [falling, partial curve]

O=c1c(O)c(-c2ccc(O)c(O)c2)oc2cc(O)cc(O)c12
AC50 [8]: 23.1 µM [falling, partial curve]
AC50 [2]: 5.01 µM [falling, full curve, poor fit]
z-score [4, 11]: 0.387
z-score [4, 12]: 0.306
z-score [4, 14]: 0.518

C#C[C@]1(O)CC[C@H]2[C@@H]3CCc4cc(O)ccc4[C@H]3CC[C@@]21C
AC50 [6]: 35.5 µM [falling, partial curve]
max response [1]: 6.83% and -10.6%
max response [9]: -4.49% and -11.9%
AC50 [2]: 2.82 µM [falling, full curve]
AC50 [3, 10]: 19.5 µM [falling, single point]
AC50 ([3]; measured here: PEO4 viability): 24.5 µM [falling, single point]
